Assay results as given in PubChem BioAssay AID540276 (National Center for Advancing Translational Sciences (NCATS), 2011).
The whole screen tested about 300,000 compounds, of which about 5,400 (1.8%) were called active. Inconclusive means that the source gave no clear call. Such entries were picked first, then a sample of the others. Calls come from the whole dose curve; tested in HEK293 cells. A potency beside an inconclusive call is a rough fit, not a confirmed value.

Test: qHTS for inhibitors of binding or entry into cells for Marburg Virus
Conditions: Marburg virus pseudotyped entry inhibition, cell reporter; activity change, negative = inhibition: at 37.8 µM (top of the series) unless noted
% is set by controls: 0 for no effect and ±100 for the full control effect; potency is the fitted concentration of half-maximal effect.

Row | SMILES | Potency | activity change, negative = inhibition
1 | CC1=C(c2ccc(C)cc2)S(=O)(=O)NC1=NCCCN1CCN(c2cc(C)ccc2C)CC1 | inconclusive: 3.16 µM [activator, single point] | 
2 | CCCCCn1c2nc3ccccc3nc2c2c(=O)n(CC(C)C)cnc21 | inactive | 
3 | Cc1nn(-c2ccccc2)c(C)c1NC(=O)COC(=O)CC(C)c1ccccc1 (stereo not drawn) |  | inactive: 26.6% [at 46.1 µM]
4 | COc1ccc(N2CCN(CC(O)COc3ccc(C)cc3C)CC2)cc1 (stereo not drawn) | inconclusive: 10 µM [inhibitor, partial curve, poor fit] | 
5 | CCOC(=O)c1[nH]c(C)c(/C(O)=C2\C(=O)C(=O)N(CCN(C)C)C2c2ccc(C)o2)c1C (stereo not drawn) |  | inactive: -11.9%
6 | O=C1CN(S(=O)(=O)c2cc(C(F)(F)F)ccc2Cl)CCN1 | inconclusive: 0.631 µM [inhibitor, single point] | 
7 | O=S(=O)(Nc1ccc(Br)cc1)c1cccc2cccnc12 | inconclusive: 35.5 µM [inhibitor, single point] | 
8 | N#Cc1ccc(CSc2ccc(S(=O)(=O)N3CCCCCC3)cn2)cc1 | inconclusive: 35.5 µM [inhibitor, single point] | 
9 | Cc1cc(=S)cc(C)n1CCCO |  | inactive: 34.2%
10 | O=CNc1c(Cl)cc2c(c1Cl)Cc1cc([N+](=O)[O-])ccc1-2 | inconclusive: 20 µM [inhibitor, partial curve] | 
11 | C=CCOc1c(Br)cc(CNn2nnnc2N)cc1OCC |  | inactive: -4.47%
12 | CCCCNC(=O)NNC(=O)c1ccc(F)cc1 | inconclusive: 7.08 µM [activator, partial curve, poor fit] | 
13 | Cc1ccc(OCC(=O)Nc2ccc(OCc3cc(=O)n4ccsc4n3)cc2)cc1 |  | inactive: -2.73% [at 46.1 µM]
14 | CN(CC(=O)Nc1cccc(F)c1)C(=O)c1cc(-c2ccccc2)nc2ccccc12 | inconclusive: 10 µM [inhibitor, partial curve] | 
15 | Cc1ccc2[nH]c(CN3CCC(CO)(CC4CCCCO4)CC3)c(C)c2c1 (stereo not drawn) | inconclusive: 3.16 µM [inhibitor, full curve, poor fit] | 
16 | COc1ccc(Br)cc1CN1CCCC(C(=O)N2CCCCC2)C1 (stereo not drawn) | inconclusive: 16.4 µM [inhibitor, partial curve] | 
17 | Cc1ccc(S(=O)(=O)C2(C(=O)Nc3ccc(C)c(Cl)c3)CC2)cc1 | inconclusive: 20 µM [activator, single point] | 
18 | COc1ccc(C(=O)Oc2ccc(=O)n(-c3ccccc3)n2)cc1 |  | inactive: 8.21%
19 | O=C(CNC(=O)c1ccccc1)OCCCOC(=O)CNC(=O)c1ccccc1 | inconclusive: 22.4 µM [activator, partial curve, poor fit] | 
20 | CCOC(=O)c1ccc(NC(=O)CSc2nnc(CNC(=O)c3c(F)cccc3Cl)o2)cc1 | inconclusive: 0.282 µM [activator, full curve, poor fit] | 
21 | CC(=O)Nc1ccc(NC(=O)c2cccc(-c3cc4ccccc4oc3=O)c2)cc1 |  | inactive: 17.7%
22 | Fc1ccc(-c2nnc3ccccn23)cc1 |  | inactive: 7.87%
23 | Cc1cc(C(=O)N/N=C/c2cccnc2)c2ccccc2n1 | inconclusive: 35.5 µM [inhibitor, partial curve, poor fit] | 

Row | SMILES | Potency | activity change, negative = inhibition
24 | CCCCn1c(=O)[nH]c(=O)c2c1nc(-c1ccc(-c3ccc(F)cc3)o1)n2C |  | inactive: 17.9% [at 46.1 µM]
25 | CCOC(=O)N1CCN(c2nc(-c3cccs3)nc3ccccc23)CC1 | inconclusive: 11.2 µM [inhibitor, partial curve, poor fit] | 
26 | Cn1nc(C(=O)NCc2cccc(Cl)c2)c2c1-c1ccccc1SC2 |  | inactive: -1.5% [at 46.1 µM]
27 | Cc1cc(C)c2c(n1)SCC(=O)N2CC(=O)Nc1ccc(C)c(C)c1 | inactive | 
28 | COc1ccc(Oc2cccc3c2S(=O)(=O)N(C2CC2)C[C@@H](COCc2ccccc2)O3)cc1 | inconclusive: 3.53 µM [inhibitor, full curve, poor fit] | 
29 | O=C(Nc1ccc(-c2nc3ccccc3[nH]2)cc1)c1ccc(N2C(=O)CCC2=O)cc1 |  | inactive: -0.884%
30 | Cc1c(C)n(CCO)c2ncnc(Nc3ccc(F)cc3)c12 | inconclusive: 11.2 µM [activator, partial curve, poor fit] | 
31 | COc1cccc(-c2nc3ccc(O)cc3c(=O)o2)c1 | inconclusive: 0.316 µM [activator, partial curve, poor fit] | 
32 | COc1ccc2cc(C(=O)N3CCN(c4cccc(C)c4C)CC3)[nH]c2c1 | inconclusive: 22.4 µM [inhibitor, partial curve, poor fit] | 
33 | O=C(O)c1ccc(-n2nc(C(F)(F)F)c3c2CCCC3)cc1 | inconclusive: 4.61 µM [activator, single point] | 
34 | Cc1nc2ccc(NC(=O)c3cccs3)cc2c(=O)n1Cc1ccc(Cl)cc1 | inconclusive: 14.6 µM [inhibitor, partial curve, poor fit] | 
35 | O=C(N/C(C(=O)N1CCOCC1)=C(\Sc1ncccn1)c1ccccc1)c1ccccc1 | inconclusive: 0.126 µM [inhibitor, full curve, poor fit] | 
36 | O=C(COC(=O)c1cccs1)Nc1ccc(S(=O)(=O)N2CCOCC2)cc1 | inconclusive: 6.31 µM [activator, full curve, poor fit] | 
37 | Cc1c(C#N)c(N)nc(Cl)c1C#N | inconclusive: 11.2 µM [inhibitor, partial curve, poor fit] | 
38 | CN(C)CCN(CC1CCCN(Cc2ccccc2F)C1)C(=O)c1ccc(Cl)cc1 (stereo not drawn) | active: 8.91 µM | 
39 | CN(C)c1oc(/C=C/c2ccccc2)nc1C#N | inconclusive: 0.224 µM [activator, full curve, poor fit] | 
40 | CCc1cc(=O)oc2cc(C)c(CN3CCC[C@@H](C)C3)c(O)c12 |  | inactive: 14.3%
41 | COCCNc1oc(/C=C/c2ccccc2)nc1C#N |  | inactive: 7.64%
42 | O=C(Nc1ccc(N2CCN(C(=O)c3ccccc3)CC2)cc1)c1cccnc1 | inconclusive: 22.4 µM [activator, partial curve, poor fit] | 
43 | Cc1ccc(S(=O)(=O)N2CCC(C(=O)NCCC3=CCCCC3)CC2)c(C)c1 | inconclusive: 25.1 µM [inhibitor, single point] | 
44 | COc1ccc(CCNC(=O)c2nnn(-c3ccccc3OC)c2N)cc1OC |  | inactive: -15.6%
45 | CC(C)CCN1CCN(Cc2cccn2-c2ccc(Cl)cn2)CC1CCO (stereo not drawn) |  | inactive: -15.8% [at 46.1 µM]
46 | O=C1NC(=S)N(c2ccc(F)cc2)C(=O)/C1=C\c1ccoc1 |  | inactive: -10.5% [at 46.1 µM]

Row | SMILES | Potency | activity change, negative = inhibition
47 | Oc1c(Cl)cc(Cl)cc1C=Nc1ccc(N2CCOCC2)cc1 | inconclusive: 1 µM [inhibitor, single point] | 
48 | Cc1ccccc1OCCCn1c(CCNC(=O)C2CCCCC2)nc2ccccc21 | inconclusive: 10 µM [inhibitor, partial curve, poor fit] | 
49 | Cc1ccc(S(=O)(=O)N2CCCC(c3nc(-c4ccc(C)o4)no3)C2)cc1 (stereo not drawn) | inconclusive: 32.6 µM [inhibitor, partial curve, poor fit] | 
50 | c1ccc(CCNc2nnnn2-c2ccccc2)cc1 |  | inactive: 9.78%
51 | Cc1nc2nc(C)c(NS(=O)(=O)c3ccc(F)cc3)c(=O)n2[nH]1 |  | inactive: 19.8% [at 46.1 µM]
52 | O=C(Nc1cccc(C(=O)O)c1)Nc1cccc2ccccc12 | inconclusive: 10 µM [inhibitor, partial curve, poor fit] | 
53 | CCn1nnc(-c2ccccc2NS(=O)(=O)c2ccc(S(=O)(=O)N(C)C3CCCCC3)cc2)n1 | inconclusive: 29.1 µM [inhibitor, single point] | 
54 | C[C@]12CCC3C(CC[C@H]4C[C@H](OC(=O)c5cccnc5)CC[C@]34C)C1CCC2=O (stereo partly drawn) | inconclusive: 11.2 µM [inhibitor, single point] | 
55 | Cc1cc(S(=O)(=O)c2ccc([N+](=O)[O-])cn2)ccc1Br | active: 10 µM | 
56 | CCOC(=O)c1ccc(S(=O)(=O)Nc2ccccc2-c2nnn(CC)n2)cc1 | inconclusive: 0.112 µM [activator, full curve, poor fit] | 
57 | COc1cc(SC)ccc1C(=O)N1CCN(c2ccccc2OC)CC1 | inconclusive: 3.55 µM [inhibitor, full curve] | 
58 | CC(C)Cn1c(=O)c(C(=O)Nc2ccccc2S(N)(=O)=O)c(O)c2ccccc21 |  | inactive: -27.9%
59 | CC1CCCCN1S(=O)(=O)c1ccc(C(=O)N(CCCN(C)C)c2nc3cc4c(cc3s2)OCO4)cc1 (stereo not drawn) | inconclusive: 35.5 µM [inhibitor, single point] | 
60 | O=C(Nc1cccc(NC(=O)c2cncc(Br)c2)c1)c1cncc(Br)c1 | inconclusive: 22.4 µM [inhibitor, single point] | 
61 | CNC(=O)COC(=O)[C@@H](Nc1ccc(S(=O)(=O)N2CCOCC2)cc1[N+](=O)[O-])C(C)C | inconclusive: 25.1 µM [inhibitor, partial curve, poor fit] | 
62 | O=C(CCC1CCCN(C(=O)Cn2cnnn2)C1)NCc1ccccc1F (stereo not drawn) | inconclusive: 3.98 µM [inhibitor, partial curve, poor fit] | 
63 | O=c1[nH]c(-c2ccc3c(c2)OCO3)nc2c1sc(=S)n2-c1ccccc1 | inconclusive: 1.26 µM [activator, partial curve, poor fit] | 
64 | CCOC(=O)N(CC)c1ccc(C(O)(C(=O)OCC)C(F)(F)F)cc1 (stereo not drawn) |  | inactive: -6.79%
65 | CCC1(c2ccc(F)cc2)NC(=O)N(CC(=O)N2CCN(S(=O)(=O)c3ccc(Cl)cc3)CC2)C1=O (stereo not drawn) |  | inactive: -9.51%
66 | CCC(Cc1ccccc1)NC(=O)CN(C)S(=O)(=O)c1ccc2c(c1)c(=O)n(C)c(=O)n2C (stereo not drawn) |  | inactive: 4.78%
67 | COc1ccc2[nH]c(=O)c(CN(CC3CCCO3)C(=O)Nc3ccc(F)cc3)cc2c1 (stereo not drawn) | inconclusive: 35.5 µM [inhibitor, single point] | 
68 | CSCCC1C(C#N)=C(N)Oc2n[nH]c(-c3cccs3)c21 (stereo not drawn) | inconclusive: 35.5 µM [inhibitor, single point] | 

Given comma-delimited: part of the list above
Row,SMILES,Potency,"activity change, negative = inhibition"
58,CC(C)Cn1c(=O)c(C(=O)Nc2ccccc2S(N)(=O)=O)c(O)c2ccccc21,,inactive: -27.9%
59,CC1CCCCN1S(=O)(=O)c1ccc(C(=O)N(CCCN(C)C)c2nc3cc4c(cc3s2)OCO4)cc1 (stereo not drawn),"inconclusive: 35.5 µM [inhibitor, single point]",
60,O=C(Nc1cccc(NC(=O)c2cncc(Br)c2)c1)c1cncc(Br)c1,"inconclusive: 22.4 µM [inhibitor, single point]",
